10 molecules from PubChem BioAssay AID248 (DTP/NCI, 2004) can be followed below.

The list does not hold the whole screen: it gathers some chemical classes. Not every dose and run of a compound is shown. T/C is the treated group as % of the vehicle group. Some doses have a count of surviving animals in place of a T/C: the source holds a T/C of zero for them, seemingly a mark for toxic or unscored doses. Some doses without a T/C left all or most animals alive at the check, yet need not have been tolerated: the source hardly ever lists a survival T/C far under the control, and the zero likely stands for such cases as well. Survivors were counted at the toxicity check, usually on the fifth day, unless a day is given; later deaths do not show. Schedules are NCI's codes, taken here to give the interval after Q, in days (D) or hours (H), and the number of doses after X. Some schedule codes hold Z or #, which are not explained here. Where survival is the endpoint, this PubChem deposit counts one and a half times the control or more as active, and values a quarter to a half above the control carry no call in these data; other NCI protocols may use other cut-offs. Some doses were run more than once; the results are listed from low to high. Some entries show no survivor count and are marked so; the dose need not have been tolerated. Some T/C values are followed by the survivors on the day toxicity was checked, most often the fifth; without a count or a note in brackets, all were alive then.

This test deals with L1210 leukemia ip in BDF1 mice, survival T/C. The experiment in a line: NCI In Vivo Anticancer Drug Screen. Data for tumor model L1210 Leukemia (intraperitoneal) in B6D2F1 (BDF1) mice. Particulars: T/C endpoint: mean survival time, higher T/C = longer survival.
The mark [1] stands for this setting: dose: 100.0 mg/kg/injection, schedule: Q04DX003 (ip), vehicle: saline.
Setting [2] is: dose: 200.0 mg/kg/injection, schedule: Q04DX003 (ip), vehicle: saline.

Regarding `CS(=O)(=O)N1CC(Cl)CN(S(C)(=O)=O)C(CCl)C1` (configuration not stated), the survivor count (dose: 12.5 mg/kg/injection, schedule: Q04DX002 (ip), vehicle: Klucel (hydroxypropylcellulose) (HPC)) is 3 of 3. Also, the T/C was 95 % of control (dose: 25.0 mg/kg/injection, schedule: Q04DX002 (ip), vehicle: Klucel (hydroxypropylcellulose) (HPC)) and 100 % of control (dose: 50.0 mg/kg/injection, schedule: Q04DX002 (ip), vehicle: Klucel (hydroxypropylcellulose) (HPC)).

In the case of `C1CCC(NC2CCCCC2)CC1.CC(C)(Oc1ccc(N(CCCl)CCCl)cc1)C(=O)O`, the T/C runs as follows: (dose: 12.0 mg/kg/injection, schedule: Q01DX009 (ip), vehicle: Klucel (hydroxypropylcellulose) (HPC)) 114 % of control; (dose: 18.0 mg/kg/injection, schedule: Q01DX009 (ip), vehicle: Klucel (hydroxypropylcellulose) (HPC)) 129 % of control; (dose: 22.0 mg/kg/injection, schedule: Q01DX001 (ip), vehicle: carboxymethylcellulose (CMC)) 109 % of control; (dose: 22.0 mg/kg/injection, schedule: Q01DX009 (ip), vehicle: carboxymethylcellulose (CMC)) 147 % of control; (dose: 26.0 mg/kg/injection, schedule: Q01DX009 (ip), vehicle: Klucel (hydroxypropylcellulose) (HPC)) 130 % of control; (dose: 33.0 mg/kg/injection, schedule: Q01DX001 (ip), vehicle: carboxymethylcellulose (CMC)) 112 % of control. For the same molecule, the T/C was 96 % of control (dose: 33.0 mg/kg/injection, schedule: Q01DX009 (ip), vehicle: carboxymethylcellulose (CMC)); 134 % of control (dose: 40.0 mg/kg/injection, schedule: Q01DX009 (ip), vehicle: Klucel (hydroxypropylcellulose) (HPC)); 127 % of control (dose: 50.0 mg/kg/injection, schedule: Q01DX001 (ip), vehicle: carboxymethylcellulose (CMC)); 94 % of control [5 of 6 alive] (dose: 50.0 mg/kg/injection, schedule: Q01DX009 (ip), vehicle: carboxymethylcellulose (CMC)); 142 % of control (dose: 75.0 mg/kg/injection, schedule: Q01DX001 (ip), vehicle: carboxymethylcellulose (CMC)); 93 % of control (dose: 75.0 mg/kg/injection, schedule: Q01DX009 (ip), vehicle: carboxymethylcellulose (CMC)). The survivor count runs as follows: (dose: 60.0 mg/kg/injection, schedule: Q01DX009 (ip), vehicle: Klucel (hydroxypropylcellulose) (HPC)) 6 of 6; (dose: 150.0 mg/kg/injection, schedule: Q01DX001 (ip), vehicle: carboxymethylcellulose (CMC)) 4 of 6; (dose: 300.0 mg/kg/injection, schedule: Q01DX001 (ip), vehicle: carboxymethylcellulose (CMC)) 0 of 6.

For `NC(=O)CCCc1ccc(N(CCCl)CCCl)cc1`, the T/C (dose: 1.0 mg/kg/injection, schedule: Q01DX009 (ip), vehicle: saline) was 113 % of control; the T/C (dose: 2.5 mg/kg/injection, schedule: Q01DX009 (ip), vehicle: saline) is 117 % of control; the T/C (dose: 5.0 mg/kg/injection, schedule: Q01DX009 (ip), vehicle: saline) is 123 % of control; the T/C (dose: 8.3 mg/kg/injection, schedule: Q01DX009 (ip), vehicle: saline) is 107 and 125 % of control; the T/C (dose: 12.5 mg/kg/injection, schedule: Q01DX009 (ip), vehicle: saline) is 114 % of control; the T/C (dose: 18.8 mg/kg/injection, schedule: Q01DX009 (ip), vehicle: saline) is 137 % of control [5 of 6 alive]. Further, the T/C by setting is: (dose: 28.2 mg/kg/injection, schedule: Q01DX009 (ip), vehicle: saline) 88 % of control [5 of 6 alive]; (dose: 75.0 mg/kg/injection, schedule: Q01DX001 (ip), vehicle: saline) 126 % of control [5 of 6 alive]. The survivor count is on record as 1 of 6 (dose: 150.0 mg/kg/injection, schedule: Q01DX001 (ip), vehicle: saline) and 0 of 6 (dose: 300.0 mg/kg/injection, schedule: Q01DX001 (ip), vehicle: saline).

Turning to `COC(=O)C(O)(c1ccccc1)c1ccccc1`, the T/C (dose: 50.0 mg/kg/injection, schedule: Q01DX001 (ip), vehicle: other) was 100 % of control [survivor count not shown]; the T/C (dose: 100.0 mg/kg/injection, schedule: Q01DX001 (ip), vehicle: other) is 92 % of control [survivor count not shown]; the T/C (dose: 200.0 mg/kg/injection, schedule: Q01DX001 (ip), vehicle: other) is 100 % of control [survivor count not shown]; the T/C (dose: 400.0 mg/kg/injection, schedule: Q01DX001 (ip), vehicle: other) is 103 % of control [survivor count not shown].

On to `CN1CN(CCCl)c2ccccc21`, for which the T/C (dose: 3.0 mg/kg/injection, schedule: Q01DX Z (ip), vehicle: saline) was 90 % of control; the T/C (dose: 10.0 mg/kg/injection, schedule: Q01DX Z (ip), vehicle: saline) was 95 % of control; the T/C (dose: 30.0 mg/kg/injection, schedule: Q01DX Z (ip), vehicle: saline) was 93 % of control. The survivor count (dose: 100.0 mg/kg/injection, schedule: Q01DX Z (ip), vehicle: saline) is on record as 3 of 6.

On to `C1CCC2(CC1)OOC1(CCCCC1)OOC1(CCCCC1)OO2`, for which the T/C by setting is: (dose: 50.0 mg/kg/injection, schedule: Q01DX009 (ip), vehicle: saline with Tween-80) 96 % of control [survivor count not shown]; (dose: 100.0 mg/kg/injection, schedule: Q01DX009 (ip), vehicle: saline with Tween-80) 96 % of control [survivor count not shown]; (dose: 200.0 mg/kg/injection, schedule: Q01DX009 (ip), vehicle: saline with Tween-80) 96 % of control [survivor count not shown].

As to `O=C1C(F)=C(NCCBr)C(=O)C(F)=C1NCCBr`, the T/C was 98 % of control (dose: 6.25 mg/kg/injection, schedule: Q04DX003 (ip), vehicle: saline); 88 % of control (dose: 12.5 mg/kg/injection, schedule: Q04DX003 (ip), vehicle: saline); 92 % of control (dose: 25.0 mg/kg/injection, schedule: Q04DX003 (ip), vehicle: saline); 97 % of control (dose: 50.0 mg/kg/injection, schedule: Q04DX003 (ip), vehicle: saline); 103 % of control under setting [1]; 95 % of control under setting [2].

As to `CC(O)CN(CCO)CC(C)O` (configuration not stated), the T/C is, setting by setting: (dose: 100.0 mg/kg/injection, schedule: Q01DX009 (ip), vehicle: saline) 98 % of control; under setting [1], 91 % of control; (dose: 200.0 mg/kg/injection, schedule: Q01DX009 (ip), vehicle: saline) 93 % of control; under setting [2], 96 % of control; (dose: 400.0 mg/kg/injection, schedule: Q01DX009 (ip), vehicle: saline) 98 % of control; (dose: 400.0 mg/kg/injection, schedule: Q04DX003 (ip), vehicle: saline) 96 % of control.

Take `NN=C(N)N.O=[N+]([O-])/N=c1\nc[nH][nH]1`: the T/C was 111 % of control [survivor count not shown] (dose: 100.0 mg/kg/injection, schedule: Q04DX002 (ip), vehicle: gum acacia); 107 % of control [survivor count not shown] (dose: 200.0 mg/kg/injection, schedule: Q04DX002 (ip), vehicle: gum acacia); 111 % of control [survivor count not shown] (dose: 400.0 mg/kg/injection, schedule: Q04DX002 (ip), vehicle: gum acacia).

For the molecule `CC(C)(C)COP(=O)(O)N(CCCl)CCCl.NC1CCCCC1`, the T/C was 102 % of control (dose: 62.5 mg/kg/injection, schedule: Q01DX Z (ip), vehicle: saline) and 112 % of control (dose: 125.0 mg/kg/injection, schedule: Q01DX Z (ip), vehicle: saline). The survivor count (dose: 250.0 mg/kg/injection, schedule: Q01DX Z (ip), vehicle: saline) is recorded as 3 of 6.
